# In all, about 330,000 compounds went through this assay and about 100 (0.03%) were called active. Inconclusive means that the source gave no clear call. Such entries were picked first, then a sample of the others. The call rests on the fitted dose curve; in most records, active means well fitted inhibition curve with a large enough effect; inconclusive means small, poorly fitted or top-dose-only effect; inactive means flat fitted curve, though single readings scatter. A potency beside an inconclusive call is a rough fit, not a confirmed value.
# Test system: Chaperonin Mm-Cpn (Methanococcus maripaludis)
# Experiment: Inhibitors of TCP-1 ring complex (TRiC) of Methanococcus maripaludis (MmCpn): qHTS; further: nearly all actives have a fitted effect of over 80% in size;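 on potency: enzyme at 25 nM with ATP substrate at 10 µM during the reaction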
# Conditions: purified Mm-Cpn ATPase, ADP Transcreener TR-FRET; activity, negative = inhibition: at the top concentration
# Outline: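 TR-FRET (320 nm excitation; 590 and 665 nm emission) reports ADP made from 10 uM ATP by 25 nM enzyme; compounds were preincubated 10 min, reaction run 30 min, both at 37°C.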
# On the % scale 0 is the no-effect control and ±100 the full control effect; potency means the concentration at half of the fitted maximal effect.
Structure (SMILES),"activity, negative = inhibition",Potency
Cn1cnc2c1c(=O)n(Cc1cccc(F)c1)c(=O)n2C,inactive: 1.26%,
S=C(NCCc1ccccc1)N1CCN(C(=S)NCCc2ccccc2)CC1,inactive: 3.34%,
CC(C)=C(NC(=O)c1ccccc1)C(=O)NC(Cc1ccccc1)C(=O)O (centres undefined),,"inconclusive: 20 µM [inhibitor, single point]"
c1ccc(-c2csc(=Nc3cccnc3)n2CC2CCCO2)cc1 (centres undefined),inactive: 1.34%,
CC1CCc2c(sc(NC(=O)Cn3cnc([N+](=O)[O-])n3)c2C(N)=O)C1 (centres undefined),inactive: 1.8%,
CCC(Sc1ccc2nnc(-c3ccc(F)cc3)n2n1)C(=O)OC (centres undefined),,"inconclusive: 70.8 µM [inhibitor, single point]"
O=C(O)c1cc(-c2ccc(Br)s2)nc2ccccc12,,"inconclusive: 28.2 µM [inhibitor, partial curve, poor fit]"
[N-]=[N+]=CC(=O)CCCN1C(=O)c2ccccc2C1=O,,"inconclusive: 22.4 µM [inhibitor, single point]"
COc1ccc(CCNC(=O)COC(=O)c2ccco2)cc1OC,,"inconclusive: 22.4 µM [inhibitor, single point]"
COc1cc(C)c(CN2CCN(C(C)C(=O)NC(C)c3ccccc3)CC2)cc1OC (centres undefined),,"inconclusive: 89.1 µM [inhibitor, single point]"
O=C(CSc1nnc(-c2cccs2)n1-c1ccccc1)N1CCCC1,,"inconclusive: 100 µM [inhibitor, single point]"
Cc1nc(NC(=O)CC(C)C)sc1-c1csc(Nc2ccc(Cl)cc2Cl)n1,,"inconclusive: 89.1 µM [inhibitor, partial curve, poor fit]"
CCOc1ccccc1-c1n[nH]c(=S)o1,,"inconclusive: 158 µM [inhibitor, partial curve, poor fit]"
COc1ccc(N2CC(O)=C(c3nc(-c4ccccc4)cs3)C2=N)cc1,,"inconclusive: 63.1 µM [inhibitor, single point]"
Cc1cccc(C(=O)n2c(=S)nc3cc(C)ccn32)c1,,"inconclusive: 89.1 µM [inhibitor, single point]"
Cc1ccc(-n2nnnc2SCC(=O)N2Cc3ccccc3CC2C(=O)O)cc1 (centres undefined),inactive: 1.35%,
COc1cc(C2Nc3cc(Cl)c(S(N)(=O)=O)cc3S(=O)(=O)N2)ccc1OCc1ccccc1 (centres undefined),inactive: -0.167%,
O=C(N/C(=C/c1ccco1)C(=O)N1CCc2ccccc21)c1ccco1,inactive: -0.23%,
CC(Sc1nnc(COc2ccc(Cl)cc2)n1Cc1ccco1)C(=O)N1CCNC1=O (centres undefined),,"inconclusive: 15.8 µM [inhibitor, single point]"
Cn1c(=O)n(C)c2cc(S(=O)(=O)N3CCN(c4ccccc4)CC3)ccc21,,"inconclusive: 251 µM [inhibitor, partial curve, poor fit]"
Cc1nc2ccccc2n1CC(=O)N/N=C/c1cccs1,,"inconclusive: 14.1 µM [inhibitor, single point]"
Cc1nc2sccn2c(=O)c1S(=O)(=O)N1CCN(c2cccc(C(F)(F)F)c2)CC1,,"inconclusive: 22.4 µM [inhibitor, single point]"
NS(=O)(=O)c1ccc(CCNC(=O)c2cc(-c3ccccn3)nc3ccc(Br)cc23)cc1,,"inconclusive: 56.2 µM [inhibitor, partial curve, poor fit]"

# Laid out differently: entries from further up
Structure (SMILES)	activity, negative = inhibition	Potency
S=C(NCCc1ccccc1)N1CCN(C(=S)NCCc2ccccc2)CC1	inactive: 3.34%	
CC(C)=C(NC(=O)c1ccccc1)C(=O)NC(Cc1ccccc1)C(=O)O (centres undefined)		inconclusive: 20 µM [inhibitor, single point]

# Additional records.

Structure (SMILES),"activity, negative = inhibition",Potency
Cc1ccc(-c2csc3ncnc(Sc4nnc(CN5CCCCCC5=O)o4)c23)cc1,,"inconclusive: 112 µM [inhibitor, single point]"
Cn1nnc(NC(=S)NC(=O)c2cccc3ccccc23)n1,inactive: -0.126%,
O=C(O)c1cnn(-c2nc(-c3ccc(F)cc3)cs2)c1C(F)(F)F,,"inconclusive: 56.2 µM [inhibitor, single point]"
COc1ccc(-c2cn3c(C)c(C(=O)Nc4ccncc4)sc3n2)cc1,,active: 44.7 µM
Cc1cccc(NC(=O)Cn2c(=O)n(Cc3ccco3)c(=N)c3c4c(sc32)COC(C)(C)C4)c1,,"inconclusive: 56.2 µM [inhibitor, single point]"
COCC(=O)OCc1cc2cccc(C)c2[nH]c1=O,,"inconclusive: 39.8 µM [inhibitor, single point]"
CC(C(=O)OCC(=O)Nc1cccc(S(=O)(=O)N(C)C)c1)N1C(=O)c2ccccc2C1=O (centres undefined),,"inconclusive: 28.2 µM [inhibitor, single point]"
C=CCNC(=S)N/N=C(\C)c1ccc(OC)cc1,inactive: 1.47%,
O=C(COC(=O)c1cccc(OC(F)F)c1)NC(=O)NC1CCCCC1,inactive: 2.02%,
COc1ccccc1N(CC(O)Cn1c2ccccc2c2ccccc21)S(=O)(=O)c1ccccc1 (centres undefined),,"inconclusive: 100 µM [inhibitor, single point]"
CSc1nc(N)nc(SCC(=O)Nc2cccc(F)c2)c1C#N,,"inconclusive: 100 µM [inhibitor, single point]"
O=C(CSCc1ccccc1Cl)N1CCN(c2ccccn2)CC1,,"inconclusive: 22.4 µM [inhibitor, single point]"
CN1/C(=C\C(=O)CSc2nnc(NCc3ccccc3)s2)C(C)(C)c2ccccc21,,"inconclusive: 79.4 µM [inhibitor, single point]"
COC(=O)c1ccc(/C=N/NC(=O)CC(=O)NCC(C)C)cc1,,"inconclusive: 70.8 µM [inhibitor, single point]"
CN(C)CCCC1(c2ccc(F)cc2)OCc2cc(C#N)ccc21 (centres undefined),,inactive
COc1ccc(C2OC34CCCCC3C(C#N)(C#N)C2(C#N)C(=N)O4)cc1 (centres undefined),,"inconclusive: 100 µM [inhibitor, single point]"
O=C(N/N=C/c1cc(Cl)cc([N+](=O)[O-])c1O)C(O)(c1ccccc1)c1ccccc1,,"inconclusive: 100 µM [inhibitor, partial curve, poor fit]"
O=C(OCn1ncc(Cl)c(Cl)c1=O)c1ccc(C(F)(F)F)cc1,inactive: -3.33%,
COc1cnc(SCc2ccc(Cl)c(Cl)c2)nc1Cl,,"inconclusive: 15.8 µM [inhibitor, single point]"
CC(C)(c1cc(Br)c(O)c(Br)c1)c1cc(Br)c(O)c(Br)c1,inactive: 1.1%,
CSc1sc(C(=O)O)c2c1C(=O)CCC2,,"inconclusive: 141 µM [inhibitor, partial curve, poor fit]"
O=C(Nc1ccccc1Cl)Nc1ccccc1Cl,inactive: 3.77%,
COc1ccc2[nH]c(C(=O)Nc3ccccc3Cl)cc2c1,,"inconclusive: 100 µM [inhibitor, single point]"

Structure (SMILES),"activity, negative = inhibition",Potency
COC(=O)CCCCCCCCCC[N+]1(C)CCCCC1,inactive: 0.267%,
COc1cccc(COC(=O)c2sc3nc4n(c(=O)c3c2C)CCC4)c1OC,,"inconclusive: 10 µM [inhibitor, single point]"
CNC(=S)N1N=C(c2ccc(Br)cc2)CC1c1ccc(N(C)C)cc1 (centres undefined),,"inconclusive: 112 µM [inhibitor, partial curve, poor fit]"
CC1CCCN(S(=O)(=O)c2ccc(C(=O)Nc3nnc(-c4ccccn4)o3)cc2)C1 (centres undefined),,"inconclusive: 89.1 µM [inhibitor, single point]"
Cc1ccc(Sc2cnn(-c3ccccc3)c(=O)c2Cl)cc1,,"inconclusive: 112 µM [inhibitor, partial curve]"
NC(=O)c1cc([N+](=O)[O-])ccc1Nc1ccccc1,,"inconclusive: 282 µM [inhibitor, partial curve, poor fit]"
O=C(Nc1cccc(-c2nc3cccnc3s2)c1)c1ccco1,inactive: 0.352%,
CCOC(=O)CSC(=S)NC(=O)c1ccc(OC)cc1,inactive: -21.9%,
Cc1ccc(CNC(=O)c2cc(C)nn2-c2ccccc2)cc1,,"inconclusive: 22.4 µM [inhibitor, single point]"
CC(C)=CCN1CCN(Cc2cnc(N3CCOCC3)s2)CC1CCO (centres undefined),,"inconclusive: 15.8 µM [inhibitor, single point]"
CCCCn1c(SCC(=O)c2ccc3c(c2)NC(=O)CO3)nc2cc(S(N)(=O)=O)ccc21,,"inconclusive: 100 µM [inhibitor, single point]"
O=S1(=O)c2cccc3cccc(c23)N1Cc1ccc(-c2nnco2)cc1,,"inconclusive: 22.4 µM [inhibitor, single point]"
Cc1ccc(NC(=O)CSC(C)c2nc3ccccc3c(=O)[nH]2)cc1 (centres undefined),,"inconclusive: 100 µM [inhibitor, single point]"
CCCn1c(N)c(C(=O)CN(C)CC(=O)Nc2ccccc2CC)c(=O)[nH]c1=O,inactive: 0.328%,
CCN1CCN(C(=O)Cn2nc(C)n3c(cc4c(OC)cccc43)c2=O)CC1,,"inconclusive: 25.1 µM [inhibitor, single point]"
CCN(CC)S(=O)(=O)c1ccc(OC)c(NC(=O)COc2ccc3c(C)cc(=O)oc3c2)c1,,"inconclusive: 200 µM [inhibitor, single point]"
CCOC(=O)c1c(NC(=O)CN(CC)CC)sc2c1CCN(C(=O)OCC)C2,,"inconclusive: 31.6 µM [inhibitor, single point]"
Cn1c(-c2sc3cc(C(F)(F)F)cnc3c2-c2ccccc2)n[nH]c1=S,,"inconclusive: 355 µM [inhibitor, partial curve, poor fit]"
Cc1cccc(/C(N)=N/OC(=O)c2ccco2)c1,inactive: 0.35%,
CN(c1ccc(C(=O)N2CCOCC2)cc1[N+](=O)[O-])C1CCCCC1,,"inconclusive: 70.8 µM [inhibitor, single point]"
Cc1ccc2c(c1)C1NC(=S)NC(C)(O2)C1C(=O)Nc1ccc(Cl)cc1 (centres undefined),inactive: 1.02%,
CC(C)Cn1nc(C(=O)OCC(=O)NCC(F)(F)F)c2ccccc2c1=O,,"inconclusive: 100 µM [inhibitor, single point]"
O=C(Nc1ccc(S(=O)(=O)Nc2nccs2)cc1)c1cccc(N2C(=O)c3ccccc3C2=O)c1,inactive: -13.5%,
